Among the data in publication doi:10.1101/2025.06.21.660898 are binding values, retold here.

Sequences of proteins named here, by UniProt entry; tags and fusion partners are left off.
UniProt O15372: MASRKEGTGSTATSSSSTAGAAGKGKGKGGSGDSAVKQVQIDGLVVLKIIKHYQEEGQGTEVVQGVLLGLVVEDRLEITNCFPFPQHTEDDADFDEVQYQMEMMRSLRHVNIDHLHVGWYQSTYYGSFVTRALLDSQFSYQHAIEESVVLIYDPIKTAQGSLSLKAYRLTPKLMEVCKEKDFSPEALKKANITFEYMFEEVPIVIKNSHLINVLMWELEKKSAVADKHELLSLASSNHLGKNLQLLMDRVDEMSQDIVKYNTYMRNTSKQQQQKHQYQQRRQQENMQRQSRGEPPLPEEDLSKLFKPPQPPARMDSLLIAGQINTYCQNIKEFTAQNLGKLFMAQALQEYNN

Common to all, as to assay: co-IP
Assay [1] deals with T1, FH-full-length ZCCHC4 (HA and Flag tagged), overexpressed in HEK 293T cells (human) (UniProt Q9H5U6).
T1 sequence: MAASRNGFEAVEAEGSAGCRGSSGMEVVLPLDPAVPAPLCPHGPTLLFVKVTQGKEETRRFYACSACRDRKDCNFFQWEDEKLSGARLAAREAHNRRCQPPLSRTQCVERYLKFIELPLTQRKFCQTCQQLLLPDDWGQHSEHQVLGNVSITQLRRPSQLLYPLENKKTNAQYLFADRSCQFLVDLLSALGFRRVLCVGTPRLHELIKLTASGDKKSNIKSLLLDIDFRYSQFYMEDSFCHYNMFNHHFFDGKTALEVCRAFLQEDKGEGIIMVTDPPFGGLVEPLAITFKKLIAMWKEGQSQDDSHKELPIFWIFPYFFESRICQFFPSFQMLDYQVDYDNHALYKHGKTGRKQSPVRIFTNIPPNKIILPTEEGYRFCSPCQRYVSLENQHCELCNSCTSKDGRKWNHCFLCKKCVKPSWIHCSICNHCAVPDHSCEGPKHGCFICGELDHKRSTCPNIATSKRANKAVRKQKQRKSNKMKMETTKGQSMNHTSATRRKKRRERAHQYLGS

Assay [2] deals with T2, ZCCHC4-FH (HA and Flag tagged full-length ZCCHC4), stably expressed in HeLa cells (human) (UniProt Q9H5U6).
T2 sequence: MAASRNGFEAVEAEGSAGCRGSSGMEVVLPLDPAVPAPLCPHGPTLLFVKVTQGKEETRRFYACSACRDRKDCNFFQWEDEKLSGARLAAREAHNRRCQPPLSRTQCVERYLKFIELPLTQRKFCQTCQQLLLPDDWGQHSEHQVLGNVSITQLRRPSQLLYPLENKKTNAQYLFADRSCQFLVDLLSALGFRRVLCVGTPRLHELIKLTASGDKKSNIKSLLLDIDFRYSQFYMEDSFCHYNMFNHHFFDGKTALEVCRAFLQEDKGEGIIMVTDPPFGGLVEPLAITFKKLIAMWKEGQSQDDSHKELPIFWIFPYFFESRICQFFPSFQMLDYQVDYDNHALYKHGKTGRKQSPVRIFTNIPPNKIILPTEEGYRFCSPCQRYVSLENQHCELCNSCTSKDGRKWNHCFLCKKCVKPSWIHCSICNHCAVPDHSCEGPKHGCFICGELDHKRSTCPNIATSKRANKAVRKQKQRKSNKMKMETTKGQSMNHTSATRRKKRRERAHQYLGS

Assay [3] concerns the target T1, FH-full-length ZCCHC4 (HA and Flag tagged), overexpressed in HEK 293T cells (human). This is another data set of the same source.
Assay [4] concerns the target T2, ZCCHC4-FH (HA and Flag tagged full-length ZCCHC4), stably expressed in HeLa cells (human). This is another data set of the same source.

Like-named read-outs stand apart in the source and are kept apart here. These are yes or no findings as the source states them, for the method shown. In cells and extracts the contact can be indirect. Some results given as binding are weak or reduced against the parent protein; the word gives no strength. Tags and fused reporters may be left off the sequences shown.

For the molecule “eIF3H, a core subunit of the eIF3 complex (from UniProt O15372 1-352)”, the binding entry in assay [1] and in assay [2] was “binds” each time.

B1: PDCD4 (protein, UniProt Q53EL6 1-469)
chain: MDVENEQILNVNPADPDNLSDSLFSGDEENAGTEEIKNEINGNWISASSINEARINAKAKRRLRKNSSRDSGRGDSVSDSGSDALRSGLTVPTSPKGRLLDRRSRSGKGRGLPKKGGAGGKGVWGTPGQVYDVEEVDVKDPNYDDDQENCVYETVVLPLDERAFEKTLTPIIQEYFEHGDTNEVAEMLRDLNLGEMKSGVPVLAVSLALEGKASHREMTSKLLSDLCGTVMSTTDVEKSFDKLLKDLPELALDTPRAPQLVGQFIARAVGDGILCNTYIDSYKGTVDCVQARAALDKATVLLSMSKGGKRKDSVWGSGGGQQSVNHLVKEIDMLLKEYLLSGDISEAEHCLKELEVPHFHHELVYEAIIMVLESTGESTFKMILDLLKSLWKSSTITVDQMKRGYERIYNEIPDINLDVPHSYSVLERFVEECFQAGIISKQLRDLCPSRGRKRFVSEGDGGRLKPESY
Consider B1, for which the binding result in assay [3] and in assay [4] was “binds” in each case.
